In the supplement of paper PMC5355238:
Where a name gives a salt, the structure may show the parent alone. ± gives the standard deviation of the averaged measurements. The list shows a part of the results. Single values are uncertain, as repeats are few or missing.

test system: Reh; assay: S-phase gammaH2AX median, Z-score vs plate median (drug alone); higher = more S-phase DNA damage; conditions: MK1775 concentration 0 nM; 10 µM; 4 h

Row | SMILES | S-phase gammaH2AX median (Z-score)
1 | C[S+]([O-])c1ccc(-c2nc(-c3ccc(F)cc3)c(-c3ccncc3)[nH]2)cc1 (configuration not stated) | -0.0205
2 | CN[C@H](CC(=O)O)C(=O)O [N-Methyl-D-aspartic acid] | -0.0071
3 | CN1CCN(C2Cc3ccccc3Sc3ccc(Cl)cc32)CC1 (configuration not stated) [(?)-Octoclothepin maleate] | -0.0568
4 | Cn1c(=O)c2[nH]c(-c3ccccc3)nc2n(C)c1=O [1,3-Dimethyl-8-phenylxanthine] | 0.0828
5 | C#Cc1cccc(Nc2ncnc3cc(OCCOC)c(OCCOC)cc23)c1 [Erlotinib HCl] | 0.0754
6 | OC[C@H]1NC[C@H](O)[C@@H](O)[C@@H]1O [1-Deoxynojirimycin hydrochloride] | -0.0819
7 | CC(C)C[C@@H](C(=O)N[C@H](C(=O)OC1CCCC1)c1ccccc1)[C@H](O)C(=O)NO [Tosedostat (CHR2797)] | 0.08
8 | C[C@H]1c2cccc(O)c2C(=O)C2=C(O)[C@]3(O)C(=O)C(C(N)=O)=C(O)[C@@H](N(C)C)[C@@H]3[C@@H](O)[C@@H]21 [Doxycycline hydrochloride] | -0.126
9 | C[C@](N)(Cc1ccc(O)c(O)c1)C(=O)O [L-alpha-Methyl DOPA] | -0.026
10 | c1cnc(N2CCN(Cc3ccc4c(c3)OCO4)CC2)nc1 [Piribedil maleate] | 0.00473
11 | O=C(O)CNC(=O)C(CS)Cc1ccccc1 (racemic) [DL-Thiorphan] | 0.194
12 | Fc1ccc(CN(C2=NCCN2)c2c(Cl)cccc2Cl)cc1 [IMID-4F hydrochloride] | 0.113
13 | Cc1nn(-c2ccccc2)c(C)c1C=NN1CCN(Cc2ccccc2)CC1 | -0.0205
14 | Cc1ccc(NC(=O)c2ccc(CN3CCN(C)CC3)cc2)cc1Nc1nccc(-c2cccnc2)n1 [Imatinib (Gleevec)] | -0.0104
15 | OC[C@H]1O[C@@H](n2cnc3c(NC4CCCC4)ncnc32)[C@H](O)[C@@H]1O [N6-Cyclopentyladenosine] | -0.0252
16 | C[N+](C)(C)CC=O [Betaine aldehyde chloride] | 0.0155
17 | CCCn1c(=O)[nH]c(=O)c2[nH]cnc21 [3-n-Propylxanthine] | 0.111
18 | Cn1c(=O)[nH]c2ncn(C)c2c1=O [1,7-Dimethylxanthine] | 0.0409
19 | C1COC(NC(C2CC2)C2CC2)=N1 [Rilmenidine hemifumarate] | 0.1
20 | COc1cc(OC2CCN(C)CC2)ccc1Nc1ncc2c(n1)n(C1CCCC1)c(=O)n2C | 0.0978
21 | CC(NC(=O)c1ccccc1/N=C/c1c(O)ccc2ccccc12)c1ccccc1 (configuration not stated) [Sirtinol] | -0.0313
22 | NC1CCN(c2cccc(Cl)n2)CC1 | 0.04
23 | NC(=NCCC[C@H](N)C(=O)O)NO [NG-Hydroxy-L-arginine acetate] | 0.0661
24 | Cc1ccc(S(=O)(=O)N[C@@H](Cc2ccccc2)C(=O)CCl)cc1 [N-p-Tosyl-L-phenylalanine chloromethyl ketone] | 1.17
25 | CC(C)NCC(O)COc1ccc(CCOCC2CC2)cc1 (configuration not stated) [Betaxolol hydrochloride] | 0.0291
26 | CCOC(=O)c1cnc2c(cnn2CC)c1NN=C(C)C [Etazolate hydrochloride] | -0.0724

Row | SMILES | S-phase gammaH2AX median (Z-score)
27 | COc1cc2ncnc(-n3nc(-c4ccccn4)nc3N)c2cc1OC | -0.12
28 | NCCCCNS(=O)(=O)c1ccc2c(Cl)cccc2c1 | 0.035
29 | COc1cc2ncnc(Nc3cccc(Cl)c3)c2cc1OC [Tyrphostin AG 1478] | 0.601
30 | COc1ccc(C2=N[C@@H](c3ccc(Cl)cc3)[C@@H](c3ccc(Cl)cc3)N2C(=O)N2CCNC(=O)C2)c(OC(C)C)c1 [Nutlin-3] | 0.0205
31 | c1ccc(C2CN3CCSC3=N2)cc1 (single isomer, unassigned; (-)) [(-)-Tetramisole hydrochloride] | 0.147
32 | CN/C(=N\CCSCc1nc[nH]c1C)NC#N [Cimetidine] | -0.0563
33 | CC1CCN=C(N)S1 (configuration not stated) [(?)-AMT hydrochloride] | 0.122
34 | N#C/C(=C\c1ccc(O)c(O)c1)C(=O)NCCCc1ccccc1 [Tyrphostin AG 555] | 0.04
35 | NC(=O)c1ccc(I)c([N+](=O)[O-])c1 [Iniparib (BSI-201)] | 0.168
36 | O=C(O)c1cc2cc(Cc3cccnc3)ccc2o1 [Furegrelate sodium] | -0.0661
37 | CC(C)(C)c1ccc(S(=O)(=O)/C=C/C#N)cc1 | 1.52 ± 2.3
38 | O=Nc1ccc2oc(=O)ccc2c1 [6-Nitroso-1,2-benzopyrone] | -0.0307
39 | CC(=O)c1c(C)c2cnc(Nc3ccc(N4CCNCC4)cn3)nc2n(C2CCCC2)c1=O | -0.0437
40 | O=C(O)c1cc(=O)c2c(Cl)cc(Cl)cc2[nH]1 [5,7-Dichlorokynurenic acid] | 0.0252
41 | C[C@@H](O[C@H]1OCCN(Cc2n[nH]c(=O)[nH]2)[C@H]1c1ccc(F)cc1)c1cc(C(F)(F)F)cc(C(F)(F)F)c1 [Aprepitant (MK-0869)] | 0.0259
42 | Cc1cn(-c2cc(NC(=O)c3ccc(C)c(Nc4nccc(-c5cccnc5)n4)c3)cc(C(F)(F)F)c2)cn1 [Nilotinib (AMN-107)] | -0.0731
43 | NC(=O)c1ccc(-c2nc(-c3ccccn3)c(-c3ccc4c(c3)OCO4)[nH]2)cc1 | 0.0236
44 | CN1C(=O)C(Cc2c[nH]c3ccccc23)NC1=S (configuration not stated) [Necrostatin-1] | 0.209
45 | COc1cc2c(NC3CCN(C)CC3)nc(N3CCCN(C)CC3)nc2cc1OCCCN(C)C | 0.175
46 | CCn1c(-c2nonc2N)nc2c(C#CC(C)(C)O)ncc(OC[C@H]3CCCNC3)c21 | -0.0151
47 | NC(=O)CC[C@H](N)C(=O)O [L-Glutamine] | 0.139
48 | CCN(CC)CCOc1ccc(Nc2ncc3cc(-c4c(Cl)cccc4Cl)c(=O)n(C)c3n2)cc1 | 4.51
49 | CC(C)OC(=O)C(C)(C)Oc1ccc(C(=O)c2ccc(Cl)cc2)cc1 [Fenofibrate] | -0.173
50 | NC(=O)c1cnccn1 [Pyrazinecarboxamide] | -0.0639
51 | Nc1nc(N)c(N=O)c(OCC2CCCCC2)n1 | 0.00967
52 | O=C(CCNNC(=O)c1ccncc1)NCc1ccccc1 [Nialamide] | 0.0189

Random excerpt: 4 records from the list.
Row | SMILES | S-phase gammaH2AX median (Z-score)
50 | NC(=O)c1cnccn1 [Pyrazinecarboxamide] | -0.0639
49 | CC(C)OC(=O)C(C)(C)Oc1ccc(C(=O)c2ccc(Cl)cc2)cc1 [Fenofibrate] | -0.173
18 | Cn1c(=O)[nH]c2ncn(C)c2c1=O [1,7-Dimethylxanthine] | 0.0409
6 | OC[C@H]1NC[C@H](O)[C@@H](O)[C@@H]1O [1-Deoxynojirimycin hydrochloride] | -0.0819

(continued)

Row | SMILES | S-phase gammaH2AX median (Z-score)
53 | N/C(=N\C(=O)c1nc(Cl)c(N)nc1N)NCc1ccccc1 [Benzamil hydrochloride] | -0.0796
54 | CCCn1c(=O)c2[nH]c(C3CCCC3)nc2n(CCC)c1=O [8-Cyclopentyl-1,3-dipropylxanthine] | 0.035
55 | Nc1ccc(-c2ccc3ncc4ccc(=O)n(-c5cccc(C(F)(F)F)c5)c4c3c2)cn1 [Torin 2] | -0.276
56 | CCC(=O)c1ccc2c(c1)N(CCCN(C)C)c1ccccc1S2 [Propionylpromazine hydrochloride] | 0.0828
57 | Cc1nc2ccccn2c(=O)c1CCN1CCC(C(=O)c2ccc(F)cc2)CC1 [Pirenperone] | 0.102
58 | COc1cccc2c1C(=O)c1c(O)c3c(c(O)c1C2=O)C[C@@](O)(C(=O)CO)C[C@@H]3O[C@H]1C[C@H](N)[C@@H](O)[C@H](C)O1 [Epirubicin Hydrochloride] | 0.657
59 | CCCN(CCC)CCc1cccc2c1CC(=O)N2 [Ropinirole hydrochloride] | 0
60 | N=C(N)c1ccc(N)cc1 [4-Aminobenzamidine dihydrochloride] | -0.0408
61 | CC(=O)O[C@H]1C(=O)[C@@]2(C)[C@H]([C@H](OC(=O)c3ccccc3)[C@]3(O)C[C@H](OC(=O)[C@H](O)[C@@H](NC(=O)c4ccccc4)c4ccccc4)C(C)=C1C3(C)C)[C@]1(OC(C)=O)CO[C@@H]1C[C@@H]2O [Taxol] | 0.567
62 | CC(=O)O[C@H]1C(=O)[C@@]2(C)[C@H]([C@H](OC(=O)c3ccccc3)[C@]3(O)C[C@H](OC(=O)[C@H](O)[C@@H](NC(=O)c4ccccc4)c4ccccc4)C(C)=C1C3(C)C)[C@]1(OC(C)=O)CO[C@@H]1C[C@@H]2O [Paclitaxel (Taxol)] | -0.0584
63 | COc1ccccc1N1CCN(CCN(C(=O)c2ccc(I)cc2)c2ccccn2)CC1 [p-MPPI hydrochloride] | -0.052
64 | OCCn1cc(-c2cnc3nnn(Cc4ccc5ncccc5c4)c3n2)cn1 | 0.13
65 | OC1(c2ccc(Cl)cc2)CCN(Cc2c[nH]c3ccccc23)CC1 | 0.102
66 | Nc1cc(N2CCCCC2)nc(N)[n+]1[O-] [Minoxidil] | -0.0568
67 | Nc1ncnc2c1ncn2[C@@H]1O[C@H](COP(=O)(O)OP(=O)(O)OP(=O)(O)OP(=O)(O)OC[C@@H]2O[C@H](n3cnc4c(N)ncnc43)C(O)[C@@H]2O)[C@H](O)C1O (some centres not stated) [P1,P4-Di(adenosine-5')tetraphosphate triammonium] | 0.29
68 | COc1ccc2cc([C@H](C)C(=O)O)ccc2c1 [(-)-Naproxen sodium] | -0.0946
69 | O=c1n(CCCN2CCN(c3cccc(Cl)c3)CC2)nc2ccccn12 [Trazodone hydrochloride] | -0.34
70 | CCOc1cc(C(=O)Nc2ccc(Cl)c(-c3nc4ccccc4[nH]3)c2)cc(OCC)c1OCC | -0.0414
71 | C=C[C@H]1CN2CC[C@H]1C[C@H]2[C@H](O)c1ccnc2ccc(OC)cc12 [Quinine sulfate] | 0.0591
72 | O=C(O)c1ccc2cc(-c3ccc(O)c(C45CC6CC(CC(C6)C4)C5)c3)ccc2c1 | 9.15
73 | Oc1ccc(-c2nc(-c3ccc(F)cc3)c(-c3ccncc3)[nH]2)cc1 | -0.00388
74 | NS(=O)(=O)c1cc2c(cc1Cl)NC(C1CC3C=CC1C3)NS2(=O)=O (configuration not stated) [Cyclothiazide] | 0.0971
75 | S=C(S)N1CCCC1 [Ammonium pyrrolidinedithiocarbamate] | -0.0851
76 | CSC(=N)NCCC[C@H](N)C(=O)O [S-Methyl-L-thiocitrulline acetate] | -0.0615
77 | O=c1oc2c(O)c(O)cc3c(=O)oc4c(O)c(O)cc1c4c23 [Ellagic acid] | 0.0205

Some of the entries so far, comma-delimited.
Row,SMILES,S-phase gammaH2AX median (Z-score)
55,Nc1ccc(-c2ccc3ncc4ccc(=O)n(-c5cccc(C(F)(F)F)c5)c4c3c2)cn1 [Torin 2],-0.276
58,COc1cccc2c1C(=O)c1c(O)c3c(c(O)c1C2=O)C[C@@](O)(C(=O)CO)C[C@@H]3O[C@H]1C[C@H](N)[C@@H](O)[C@H](C)O1 [Epirubicin Hydrochloride],0.657
60,N=C(N)c1ccc(N)cc1 [4-Aminobenzamidine dihydrochloride],-0.0408
